72 sequences from the supplement of paper PMC10338343 can be followed below.

± gives the standard deviation. This is a selection; strong and weak results do not stand in their true shares. Many entries were measured with a wide error.

This test relates to MIWI (PIWIL1) piRISC loaded with piRNA #2 (30 nt). Kind of test: pre-steady-state target cleavage rate (min^-1); MIWI and MILI are mouse PIWI proteins and EfPiwi is from a freshwater sponge; tags in brackets are library labels; higher = faster piRNA-guided slicing of the target. The note with it: guide: piRNA #2 5'p-UUAGGUAACCCAGUAGAUCCAGAGGAAUUC; auxiliary factor: 500 nM mouse GTSF1. In a few lines: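 Sequencing of uncleaved targets, normalised to depth and to weakly complementary targets, was the readout of this Cleave-'n-Seq assay. A transcribed, DNA-blocked target RNA library (0.1 nM) was mixed with 1 nM active affinity-purified piRISC carrying one synthetic guide, with or without 500 nM GTSF1 partner protein, in HEPES–potassium acetate buffer at 33 °C for 0–8 or 0–960 min. Three trials were pooled, k3 was capped at 0.0001 min^-1, and a burst-and-steady-state fit gave the pre-steady-state cleavage rate.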
As to CUUAAGGAGACGAUCUUCUGGGAUACCUAA, the “pre-steady-state target cleavage rate” value is 0.000809 ± 0.0084.
For CUUAAGGAGACGAUCUACUGGGAAACCUAA, the “pre-steady-state target cleavage rate” value amounted to 0.000136 ± 0.025.
Regarding CUUAAGGAGACCAUCUACUCGGUUACGUAA, the “pre-steady-state target cleavage rate” value stood at 0.00126 ± 0.0056.
In the case of GAAUUCCACUGGAUCUACUGCGUUACCUAA, the “pre-steady-state target cleavage rate” value amounted to 0.744 ± 0.063.
Turning to CUUAAGGAGAGGAUCUACUGGGUUGCCUAA, the “pre-steady-state target cleavage rate” value was found to be 0.00441 ± 0.005.
Take CAAUUCCUCUGGAUCUAGACGGUUACCUAA: the “pre-steady-state target cleavage rate” value was found to be 0.000436 ± 0.014.
Next, CUUAAGGAGUGGAUCUAGUGGGUUUCCUAA: 0.000754 ± 0.006.
Next, CUUAAGGAGACGAUCUACAGGGUUACCAAA: 0.00169 ± 0.0061; CUUAAGGUCUGGAUCUACUGGCUUAGCUAA: 0.000634 ± 0.019.
Take CUUAAGGAGACCUACUCUGGGUUACCUAA: the “pre-steady-state target cleavage rate” value turned out to be 0.000857 ± 0.0079.
As to CUUAAGGAGACCUAGAUGUGGGUUACGUAA, the “pre-steady-state target cleavage rate” value was found to be 0.000245 ± 0.018.
CUUAUGCUCUGGAUCUACUGGGUUACGUAA: the “pre-steady-state target cleavage rate” value was found to be 0.534 ± 0.042.
Next, CUUAAGGACUGUGAUCUACUGGGUUACCUAA: 0.00475 ± 0.014.
With CUUAAGGAGACGAUCUACUGGGUUACCUGA, the “pre-steady-state target cleavage rate” value came to 0.00244 ± 0.0037.
Turning to CUUAAGGACUGGAACUACUGCGUUACCUAA, the “pre-steady-state target cleavage rate” value turned out to be 0.0189 ± 0.021.
On to CUUAAGGACUGGAUCUACUGGGCUUACCUAA, for which the “pre-steady-state target cleavage rate” value is 0.00746 ± 0.012.
Next, CUUAAGGAGUGGUCUACUGGGUUACCUAA: 0.00109 ± 0.009; CUUAUCCUCUGGAUCUACUGCGGUUACCUAA: 0.00192 ± 0.0042; CUUAAGGAGACCAUCUUCUGGGUUACCUAA: 0.00215 ± 0.004.
For the sequence “CUUAAGGAGACCUAGUACUGGGUUACCAUA [g4:g15:cont:t1A]”, the “pre-steady-state target cleavage rate” value amounted to 0.000686 ± 0.0091.
Next, CUUAAGGAGACCAUCUUCUGGGUUAGCUAA: 0.0013 ± 0.0068; CUUAAGGAGACCUAGAUCUGGUGUUACCUAA: 0.000191 ± 0.048; CUUAAGGAGUGGAUCAACUCGGUUACCUAA: 0.00072 ± 0.016.
Next, CUUAUCCUCUCGAUGUACUGGGUUACCUAA: 0.498 ± 0.03.
In the case of CUUAAGGAGACCUACUACUGGGAUACCUUA, the “pre-steady-state target cleavage rate” value is 0.000487 ± 0.02.
Turning to CUUAAGGAGAGUGAUCUACUGGGUUACCUAA, the “pre-steady-state target cleavage rate” value is 0.00223 ± 0.0035.
Regarding CUUAAGGAGAGGAUCUACAGGGUUACCAAA, the “pre-steady-state target cleavage rate” value stood at 0.000634 ± 0.012.
As for CUUAAGGAGACCUAGAUCUGGGUUACCGAA, the “pre-steady-state target cleavage rate” value was 0.000506 ± 0.013.
On to CUUAAGGAGACGAUCUACUGGGUUAUCCUAA, for which the “pre-steady-state target cleavage rate” value worked out at 0.00219 ± 0.0044.
Next, CUAUUCCUCUGGAUCUACUCGGGUUACCUAA: 0.00268 ± 0.0051; CUUAAGGAGUCGAUCUACUGGCUUACCUAA: 0.000288 ± 0.031.
CUUAAGGAGUGGUUCAACUGGGUUACCUAA: the “pre-steady-state target cleavage rate” value worked out at 0.00443 ± 0.0057.
Take CUUAAGGAGACCUAGAUCAUGGGUUACCUAA: the “pre-steady-state target cleavage rate” value is 0.000772 ± 0.011.
Regarding CUUAAGGACUGGAUCUACUCGGAUACCUAA, the “pre-steady-state target cleavage rate” value amounted to 0.00159 ± 0.018.
As to CUUAAGGAGUGGAUGUACUCGGUUACCUAA, the “pre-steady-state target cleavage rate” value stood at 0.00249 ± 0.012.
Consider CUUAAGGUCUGGAUCAACUGGGUUACGUAA, for which the “pre-steady-state target cleavage rate” value came out at 0.293 ± 0.039.
Regarding GAAUUCCUCUGGAAGUACUGGGUUACCUAA, the “pre-steady-state target cleavage rate” value amounted to 0.511 ± 0.047.
As for CAAUUCCUCUGGAUCUACUGGAGUUACCUAA, the “pre-steady-state target cleavage rate” value was 0.00382 ± 0.0035.
For the sequence CUUAACCUCUGGAUCUACUGAGUUACCUAA, the “pre-steady-state target cleavage rate” value came out at 0.646 ± 0.047.
As for CUUAAGGAGACCAUCGACUGGGUUACCUAA, the “pre-steady-state target cleavage rate” value amounted to 0.000723 ± 0.0094.
Next, CUUUUCCUCUGGAUCUACUGCGUUAGCUAA: 0.142 ± 0.048; CAAUUCCUCUGGAUCUACUGGUGUUACCUAA: 0.0066 ± 0.0037; CUAUUCCUCUGGAUCUACUGGGUUACCUAAA: 0.333 ± 0.047.
Next, CUUAAGGAGACCUACUACUGCGUUAGCUAA: 0.000437 ± 0.015.
Regarding CUUAAGGAGACCUAGUACUGGGUUGCCUAA, the “pre-steady-state target cleavage rate” value turned out to be 0.00116 ± 0.01.
Next, CUUAAGGAGACCUUCUAGUGGGUUAGCUAA: 0.000574 ± 0.015.
For CUUAAGGAGACCAACUACUGGGUUACCAAA, the “pre-steady-state target cleavage rate” value was 0.00134 ± 0.0049.
For CUUAAGGAGACCUACUACUCCGUUACCUAA, the “pre-steady-state target cleavage rate” value is 0.000736 ± 0.0048.
Take CUUAAGGAGACCAUCUUCUGGGUUACCAAA: the “pre-steady-state target cleavage rate” value came out at 0.00215 ± 0.0038.
In the case of CUUAAGGAGAGGAUCAACUGGGUAACCUAA, the “pre-steady-state target cleavage rate” value turned out to be 0.00011 ± 0.06.
Regarding CUUAAGGAGACCUAGAUCCGGGUUACCUAA, the “pre-steady-state target cleavage rate” value came out at 0.0011 ± 0.012.
On to CUUAUCCUCUGGAUCUACUGGGUUACAUAA, for which the “pre-steady-state target cleavage rate” value was 0.742 ± 0.048.
With CUAUUCCUCUGGAUUCUACUGGGUUACCUAA, the “pre-steady-state target cleavage rate” value worked out at 0.346 ± 0.047.
With CUUAAGGACUGGAUCUACUGGGAUACCAAA, the “pre-steady-state target cleavage rate” value stood at 0.00112 ± 0.021.
Turning to CUUAAGGAGAGGAUCUACUGCCUUACCUAA, the “pre-steady-state target cleavage rate” value stood at 0.000731 ± 0.011.
As to CUUAAGGAGUGGAUCUACUGGGAUACCAAA, the “pre-steady-state target cleavage rate” value stood at 0.000518 ± 0.014.
With CUUAAGGAGACGAUCUACUGGGUUCCCUAA, the “pre-steady-state target cleavage rate” value worked out at 0.0012 ± 0.0041.
In the case of CUUAAGGACUGGAACUACUCGGUUACCUAA, the “pre-steady-state target cleavage rate” value was 0.0049 ± 0.011.
CUUAAGGAGAGGAUCUACUGGGUUAUCUAA: the “pre-steady-state target cleavage rate” value is 0.00226 ± 0.007.
In the case of CUUAAGGAGACGAUCUUGUGGGUUACCUAA, the “pre-steady-state target cleavage rate” value turned out to be 0.000449 ± 0.013.
CUUAAGGAGACGAUCUACUGGGUUACCUUA: the “pre-steady-state target cleavage rate” value amounted to 0.0022 ± 0.0035.
For the sequence CUUAAGGAGACCUACUACUGGGUUACCAUA, the “pre-steady-state target cleavage rate” value came out at 0.00137 ± 0.0047.
For the sequence CUUAAGGAGACCUAGAUGACCGUUACGUAA, the “pre-steady-state target cleavage rate” value came out at 0.000616 ± 0.011.
In the case of CAAUUCCUCUGGAUCUACUCGGGUUACCUAA, the “pre-steady-state target cleavage rate” value turned out to be 0.00331 ± 0.0048.
Next, CUUAAGGAGUGUGAUCUACUGGGUUACCUAA: 0.00553 ± 0.0085; CUUAAGGAGACCUAGUACUGGGUACCUAA: 0.000585 ± 0.0079; “CUUAAGGAGACCUACUACUGGGUUACCUAA [g2:g16:cont:t1A]”: 0.00332 ± 0.0035.
Take CUUAAGGACUGGAUCUUCUGGGUUACCAAA: the “pre-steady-state target cleavage rate” value came to 0.0039 ± 0.013.
As to CUUAAGGAGACCUAGAUCUAGGGUUACCUAA, the “pre-steady-state target cleavage rate” value was determined as 0.00116 ± 0.008.
Regarding CUUAAGGAGACCAUCAACUGGGAUACCUAA, the “pre-steady-state target cleavage rate” value came to 0.000202 ± 0.035.
CUUAAGGAGACCUACUACUGGCUUACCUAA: the “pre-steady-state target cleavage rate” value worked out at 0.00198 ± 0.0034.
Next, CUUAAGGAGACCUACUACUGGCUUACCAAA: 0.00152 ± 0.0036.
